For 115 substances, growth estimate results are on record in the supplement of paper PMC5949888.

± gives the standard deviation of the averaged measurements. Most values lie at the floor of the assay. Slopes are relative: functional sequences can read slightly below zero.

This data set has as its system Saccharomyces cerevisiae PS128 hsf1 delta, HSF1(1-493) fusion. The data set is described as follows: growth estimate (transactivation domain function in HSF1 fusion, heat-shock survival) (a.u. (slope of normalised read count over time)); higher = stronger growth at 37°C, i.e. more transactivation activity. Particulars: library: random library.
For the substance QGILRGATLLG, the growth estimate was under -0.25.

Consider AGRERD, for which the growth estimate is under -0.25. On to CCGLLLRNIRVCHF, for which the growth estimate was under -0.25. With YITSASFGQPAHGCDASFGP the figure was under -0.25; with LEEGAGSESRTLKMMLDVTG, under -0.25; with QSNSSSHHPS, under -0.25. Regarding RTVRTETLWGGEELCGPIPG, the growth estimate was under -0.25.

Consider DHNERGTWVPRGSRFVTFHA, for which the growth estimate was under -0.25. Next, QFLGGTEDNHRRYAKL: under -0.25; GVQGRVLVLLSCDTCRSMDP: under -0.25; KAEKKVLVRVRV: under -0.25. With SAPLRCLLSAESTLDWTRQS, the growth estimate is under -0.25. Next, SWKPLQARPGRILRMHLYSF: under -0.25. With DRTVVL the figure was under -0.25; with GSKAILAPVAKIKQIVRKHA, under -0.25; with SCWLMCCSIRGGHAEHAKQQ, under -0.25. Next, SYVRHTQPGQTCC: under -0.25. In the case of GYRSR, the growth estimate is under -0.25. On to KSRIKWATH, for which the growth estimate was under -0.25.

With GIGCVRQVLEGGTRPALGTG, the growth estimate is under -0.25. As to ASQWSLAYGVRGHPGALRTG, the growth estimate is under -0.25. With SNISLDKHFYSCSIDHVSDL, the growth estimate is under -0.25. Turning to RRTISNKAWFLGSRVHLGRP, the growth estimate was under -0.25.

Turning to RCQIQRRVLPSQFSALPVGE, the growth estimate was under -0.25.

As for FLALQGGGITECVIQVSCKR, the growth estimate is under -0.25. Regarding KVVIRVPISTIRKCSEAGSP, the growth estimate was under -0.25.

On to RDKPMMV, for which the growth estimate is under -0.25. Next, ARTVRRMR: under -0.25; AISHAL: under -0.25; LIWARDQPVRNHFEPVHHEE: under -0.25. Next, YATVGKMLYDAGVINV: under -0.25; CDAEKRQRAELHS: under -0.25. Take TQYNRANAGISFKHLTRPPA: the growth estimate is under -0.25.

Take KVRGEIDFASCENNIKCGQS: the growth estimate is under -0.25. PAIAVK: the growth estimate was under -0.25.

YVGSKCICRCVAIRRAELAV: the growth estimate was under -0.25. As to IVYTDASRSVSRRVSGSLSS, the growth estimate is under -0.25. With YGLWWLISVGRLLFTVIAR the figure was under -0.25; with AHGSCKCIP, under -0.25. Take VLTVRYAGTRPLSVDRGNCL: the growth estimate was -0.248. As to DLSVRSWTGAACVLEPPDSI, the growth estimate is under -0.25. PLTLSSSRAWGALRAKHATS: the growth estimate was under -0.25. Take GYARIPHSC: the growth estimate is under -0.25. With VLDVQPVSVRRFQLFRSWPD the figure was under -0.25; with YIVIVIESLALVSSRLSQRN, -0.246; with QETHSGLVKSRQLHRFSEE, under -0.25. Next, TLPLATTKISTVTHPDRINA: under -0.25. Turning to CQSDLSLPSMFYSGRFYRQR, the growth estimate was under -0.25.

GLVGL: the growth estimate was under -0.25. With FGRVVCKFLSVGANPFSFCG the figure was under -0.25; with KTPA, under -0.25. Consider YHHPT, for which the growth estimate is under -0.25. Turning to ANDGLCVQYSLRTQPRFSIG, the growth estimate was under -0.25.

As for SVLCTRLRCLGSMLSRL, the growth estimate is under -0.25. Turning to TLR, the growth estimate was under -0.25.

VRMMLFSMPRNRGSTRKFLD: the growth estimate was under -0.25. Regarding LRQ, the growth estimate is -0.247 ± 0.0037.

For VAWLETYATHIRRFSTFGSA, the growth estimate is under -0.25. With GGALA the figure was under -0.25; with YSDSDAEVEVPPALI, under -0.25; with PQVLHGYFVVCRCALRSMFR, under -0.25. With VPAMVLAPTLSQLSLTGSCG the figure was under -0.25; with RGGEPSCRASLPVCMTKNPG, under -0.25; with YLRQKLA, under -0.25. Take LVSPKKPGIMEPEPDPPCRG: the growth estimate was under -0.25.

As to LPALDLTSKLCYAQFQPPND, the growth estimate was under -0.25.

Consider SPSRSGLYLFTF, for which the growth estimate is under -0.25. Take GGRHHHPTGETPSPPLIEVE: the growth estimate was under -0.25. Take HILQGDHMPFQRCQRARITN: the growth estimate is under -0.25. Next, ELFNIGRVRHSYHVCDAALW: under -0.25. With LERQDLGYDLQ the figure was under -0.25; with FMSV, under -0.25.

For MIYS, the growth estimate is under -0.25. Take IILVGS: the growth estimate was under -0.25. With VLFPVI the figure was under -0.25; with GPYCITSS, under -0.25; with LRGDLSSRALGVSLKDGHIS, under -0.25. Take NVALTWHLGFILAARGIHYG: the growth estimate is under -0.25. With TGSCGS, the growth estimate was under -0.25. Next, SSLRLGGANPGAGQSYSRCR: under -0.25; EKDGKNE: under -0.25; CSFQGDCQGM: under -0.25. With VDRI the figure was under -0.25; with SAINVCWLCVSVKRPEALIR, under -0.25. Next, AIGDPTPLGLPTSG: under -0.25.

In the case of EQYLDKVKRMKSKQYRRWAS, the growth estimate is under -0.25. With ILLDTLARTSMRPLEVI the figure was under -0.25; with QISDNKYVEVPR, under -0.25; with GLPVRGFSESKVGRHRAHNS, under -0.25. With YWELLAVRGKGSQSWAYVLP, the growth estimate was under -0.25. Turning to KHNWVLG, the growth estimate is under -0.25.

As to GLTPCILCRDLHRVCSLGI, the growth estimate is -0.249. On to PSR, for which the growth estimate is under -0.25. For AVRYIYSGAVLP, the growth estimate was under -0.25. Next, HPGRRGAPGKVGCQSALFRP: under -0.25.

Consider FVYDVRRGRAPWPWPAGLLL, for which the growth estimate was under -0.25. Next, ANEIYTASRFCVPSADLHGS: under -0.25. In the case of FLS, the growth estimate is under -0.25. With CLSGTL the figure was under -0.25. For the substance RRSKQTITIVVRNWNFLLNV, the growth estimate was under -0.25. On to EGRLVSAHILGGKRPGMVAT, for which the growth estimate was under -0.25. VDAAKSSRALGRSSTVSKLC: the growth estimate was under -0.25. Next, KTWH: under -0.25; EYLSMCRHYNGSGKSIVRLV: under -0.25. Take VAGKEYLTGRPN: the growth estimate was under -0.25. As for ECL, the growth estimate was -0.25. Turning to RPSGNRWEVSLRF, the growth estimate is under -0.25. With REHLYETSAD the figure was under -0.25; with ASCIGQPL, under -0.25.

Take SMAVAVISEANWITLDTSAK: the growth estimate is under -0.25. CLYVYRLHHDFHRRKLPNDG: the growth estimate is under -0.25. For the substance RHFKRRRSAIVSMIATGPS, the growth estimate was under -0.25. As to VWGSRVSQITACWC, the growth estimate was under -0.25.

Regarding YGEGRVSARAD, the growth estimate is under -0.25. Turning to GSAKDR, the growth estimate was under -0.25.
